Results from the supplement of paper PMC3334620.
Over roughly 33,000 sequences, “E-score (-0.5 to 0.5)” has its median near -0.0059; the highest 2% begin near 0.26. Some of the results follow.

The sequences below were run against T1, Cin5 (UniProt P40917) (assay: PBM E-score (8-mer binding enrichment) (E-score (-0.5 to 0.5)); higher = stronger / more preferred TF binding). Conditions: protein concentration: 100 nM; construct: GST-full length.
T1 sequence: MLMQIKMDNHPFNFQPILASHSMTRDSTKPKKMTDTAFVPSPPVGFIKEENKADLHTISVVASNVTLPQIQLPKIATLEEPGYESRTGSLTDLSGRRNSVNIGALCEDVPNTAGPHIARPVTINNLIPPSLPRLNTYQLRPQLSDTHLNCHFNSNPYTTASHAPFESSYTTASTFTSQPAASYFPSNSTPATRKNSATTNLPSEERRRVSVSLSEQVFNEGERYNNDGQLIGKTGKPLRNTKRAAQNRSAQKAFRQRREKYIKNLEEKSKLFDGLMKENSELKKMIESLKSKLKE
Outline: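 Universal all-10-mer Agilent arrays, fresh or stripped once, were converted to double-stranded form by primer extension. GST-tagged yeast transcription factors from PURExpress in vitro transcription/translation, full-length or DNA-binding domain only, were applied at about 100-200 nM and detected with fluorescent anti-GST. After masliner normalisation, the Universal PBM Analysis Suite scored each ungapped eight-base word together with its reverse complement by E-score.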

Sequence | PBM E-score
GACCGCTA | -0.245
TAACATAA | 0.317
GGTATAAA | 0.154
CCTTCATC | -0.183
GAATGCTA | 0.00429
GGCTTCTA | -0.13
ACACCACC | -0.162
GCCATTCC | -0.0704
ATTCTGTG | 0.216
GGACTCGA | -0.127
TACCACGA | 0.00714
CGAAGCTC | -0.318
ATACGGTC | -0.0689
ATTGGTTC | 0.146
ATTGCGCA | 0.119
CGGAATGA | 0.146
AGACAGAG | -0.0616
ATGCAGCC | -0.0465
AAGCGAGG | 0.00915
CGACACAC | 0.0168
GATCGAGA | 0.138
CAAAACCG | 0.0293
GACTAAAC | -0.0118
CAAGCGTG | 0.00333
TCTATACA | -0.0622

Sequence | PBM E-score
GAAAGATA | 0.31
GGTGGCCA | -0.106
AATCCGAC | 0.0196
AGTGGGCG | 0.0596
CGTACTAA | 0.203
CTGTACTC | -0.115
CGACTGAA | -0.117
ACCCCCCA | -0.474
CGCTCCGA | 0.0457
ACAATGGA | 0.127
ACGCTTCC | -0.00759
CGATTAGA | 0.0608
GGTACCTA | -0.233
AGACTAGG | -0.104
AACCTCGT | 0.0493
ATCTTAGG | -0.0522
CCCACAGA | -0.0683
GTGGTGGA | -0.169
ATCAGATA | 0.165
CGGATAGA | 0.0855
GCCCAGCA | -0.0867
CAGAGACG | 0.051
AGTGAGAG | -0.15
AGATAACC | 0.0256
ACTACCAA | -0.0381

Sequence | PBM E-score
ACCGCGGA | 0.212
AGGAAGAA | -0.0558
AGCTTTAC | -0.0941
ACGGGGAC | -0.177
GAAAGAAC | -0.0462
CGTTGACA | -0.0832
ACGTTTGA | 0.134
CTTGGCAC | -0.156
GCCAGAAC | -0.097
ATATAGCC | 0.151
CGGGTAGC | -0.214
CTTGGCCA | -0.141
ATCTTCCA | -0.0756
ATATCTAC | 0.179
GCCTGTAA | -0.0993
CGGTTGTC | 0.0375
GCGACTAA | 0.121
AGCTCGAC | -0.00688
CCCAGGCC | -0.308
ATTACCTA | 0.349
AGTTATAG | -0.014
GATGGGTA | 0.0805
AAAGTGGC | 0.0837
AATAATCG | 0.247
GCTCATAA | 0.108

Sequence | PBM E-score
ATCAGGTC | 0.0226
AGTGTCCC | -0.0108
CTTTGACA | -0.0512
CACCAGCC | -0.156
ACGGATAC | 0.223
TATAGCGA | -0.00718
CTTCGCAA | -0.0103
GGGCCATA | 0.0202
TCTCTTAA | 0.07
AAACATGA | 0.131
ACCGGTAG | -0.176
GGCCTGGA | -0.317
CACAAGTC | -0.156
CCGTCCCA | 0.0505
ATGATAAT | 0.272
ATGCTCGA | -0.0135
AACCCGAA | -0.102
CTACACTC | -0.0261
TGCTACCA | -0.0215
ACCTCTTG | -0.128
TAGCACGA | -0.0771
AGCCTAGC | -0.181
AACCCTCT | -0.204
AGACCCGA | 0.0606
CCGCGTCA | -0.145

Taken from above:
For PBM E-score, CGACACAC is entered as 0.0168
For PBM E-score, CGAAGCTC is entered as -0.318
For PBM E-score, AGATAACC is entered as 0.0256
For PBM E-score, ATTCTGTG is entered as 0.216
For PBM E-score, AGTGTCCC is entered as -0.0108
For PBM E-score, CGCTCCGA is entered as 0.0457

Following part

Sequence | PBM E-score
AATCGAAG | 0.155
ATGGCTGA | -0.0318
CGCCGGAC | -0.205
CACTCCGG | 0.111
CAATCCTG | 0.108
CCGATGCC | -0.0431
ATTTGCGG | 0.127
TAGCGAGA | -0.0875
CGGCCTCA | -0.0357
ACAACTTC | 0.296
ACACTTTG | -0.0118
GAATTAGA | 0.143
GCTGCAAA | 0.0746
TTATGAAA | 0.238
AGCTCGTC | -0.246
GACTATCC | -0.158
ATTAGTAG | 0.0962
ACACCTCT | 0.0161
AACAACTT | 0.187
GCCACGGA | -0.125
CTCCCATC | -0.017
CAGAGACA | -0.232
CCGGGTAC | -0.25
CTCACCCA | -0.081
ATTAGACC | -0.248

Sequence | PBM E-score
CCGCAAAA | -0.0132
CAACGACC | -0.0159
GTGGGAAA | 0.0739
CCGATTCA | -0.0917
AGGACCCC | -0.144
CGGGCCCA | -0.284
AATCGAAA | 0.1
GCAACGAC | -0.118
CTCATGTA | 0.127
AAAGCGGG | -0.15
CGTGACAC | 0.0439
CGCGACTC | -0.0989
TATAGAGA | -0.101
CCATTTCA | -0.0326
AGCAGATG | 0.004
CGTATTCA | 0.132
ATATCGAC | 0.249
CGATTACG | 0.389
AGGTTGAT | 0.0144
ATACCAGC | -0.0404
GACCTACC | -0.0892
ATTTGAAG | -0.113
CCGACTCA | -0.031
CAAGAGTA | -0.0476
GAGACCAC | -0.159

Sequence | PBM E-score
CGATCGGA | -0.125
AGTTTGTA | 0.104
GAGTTCGA | 0.113
AATCGGGG | -0.0283
GCTAGCAA | -0.04
CGCGGGGC | -0.0916
AATATAGC | 0.0896
AGAAGAAA | -0.0302
CAGCCGCC | -0.0669
ACTAGAGC | 0.0367
ACATAGGA | -0.132
GCTCTCGA | -0.0134
GAGGTCCC | -0.106
TACTAGTA | 0.179
AATTATCG | 0.156
TGCGCACA | -0.026
ATATTACC | 0.317
GCCCCTTA | -0.134
GCCCTAAA | -0.335
ACTCTTCG | -0.0848
ACTCCAGT | 0.121
GAGTTTAC | 0.125
